No constants are given. Whether binding was seen depends on the method and setting. In cells and extracts the contact can be indirect. Some entries that bind do so weakly or less than the wild type.
Tests used:
[1] = target: histone H3K4 demethylase JARID1A (human (endogenous in K562)) (UniProt P29375); test: co-IP; whole cell extracts (total cell lysates) of K562 RepID WT and KO cells, proliferating or PMA-treated for 48 hours; immunoprecipitation with anti-CUL4A or anti-JARID1A (3 ug per sample, 14 h at 4°C), Sepharose beads 2 h, washed three times with PBS; immunoblotting
[2] = target: CUL4A (human (endogenous in K562)) (UniProt Q13619); test: as above

By UniProt entry, the sequences of proteins in these tests, tags left out.
UniProt P29375: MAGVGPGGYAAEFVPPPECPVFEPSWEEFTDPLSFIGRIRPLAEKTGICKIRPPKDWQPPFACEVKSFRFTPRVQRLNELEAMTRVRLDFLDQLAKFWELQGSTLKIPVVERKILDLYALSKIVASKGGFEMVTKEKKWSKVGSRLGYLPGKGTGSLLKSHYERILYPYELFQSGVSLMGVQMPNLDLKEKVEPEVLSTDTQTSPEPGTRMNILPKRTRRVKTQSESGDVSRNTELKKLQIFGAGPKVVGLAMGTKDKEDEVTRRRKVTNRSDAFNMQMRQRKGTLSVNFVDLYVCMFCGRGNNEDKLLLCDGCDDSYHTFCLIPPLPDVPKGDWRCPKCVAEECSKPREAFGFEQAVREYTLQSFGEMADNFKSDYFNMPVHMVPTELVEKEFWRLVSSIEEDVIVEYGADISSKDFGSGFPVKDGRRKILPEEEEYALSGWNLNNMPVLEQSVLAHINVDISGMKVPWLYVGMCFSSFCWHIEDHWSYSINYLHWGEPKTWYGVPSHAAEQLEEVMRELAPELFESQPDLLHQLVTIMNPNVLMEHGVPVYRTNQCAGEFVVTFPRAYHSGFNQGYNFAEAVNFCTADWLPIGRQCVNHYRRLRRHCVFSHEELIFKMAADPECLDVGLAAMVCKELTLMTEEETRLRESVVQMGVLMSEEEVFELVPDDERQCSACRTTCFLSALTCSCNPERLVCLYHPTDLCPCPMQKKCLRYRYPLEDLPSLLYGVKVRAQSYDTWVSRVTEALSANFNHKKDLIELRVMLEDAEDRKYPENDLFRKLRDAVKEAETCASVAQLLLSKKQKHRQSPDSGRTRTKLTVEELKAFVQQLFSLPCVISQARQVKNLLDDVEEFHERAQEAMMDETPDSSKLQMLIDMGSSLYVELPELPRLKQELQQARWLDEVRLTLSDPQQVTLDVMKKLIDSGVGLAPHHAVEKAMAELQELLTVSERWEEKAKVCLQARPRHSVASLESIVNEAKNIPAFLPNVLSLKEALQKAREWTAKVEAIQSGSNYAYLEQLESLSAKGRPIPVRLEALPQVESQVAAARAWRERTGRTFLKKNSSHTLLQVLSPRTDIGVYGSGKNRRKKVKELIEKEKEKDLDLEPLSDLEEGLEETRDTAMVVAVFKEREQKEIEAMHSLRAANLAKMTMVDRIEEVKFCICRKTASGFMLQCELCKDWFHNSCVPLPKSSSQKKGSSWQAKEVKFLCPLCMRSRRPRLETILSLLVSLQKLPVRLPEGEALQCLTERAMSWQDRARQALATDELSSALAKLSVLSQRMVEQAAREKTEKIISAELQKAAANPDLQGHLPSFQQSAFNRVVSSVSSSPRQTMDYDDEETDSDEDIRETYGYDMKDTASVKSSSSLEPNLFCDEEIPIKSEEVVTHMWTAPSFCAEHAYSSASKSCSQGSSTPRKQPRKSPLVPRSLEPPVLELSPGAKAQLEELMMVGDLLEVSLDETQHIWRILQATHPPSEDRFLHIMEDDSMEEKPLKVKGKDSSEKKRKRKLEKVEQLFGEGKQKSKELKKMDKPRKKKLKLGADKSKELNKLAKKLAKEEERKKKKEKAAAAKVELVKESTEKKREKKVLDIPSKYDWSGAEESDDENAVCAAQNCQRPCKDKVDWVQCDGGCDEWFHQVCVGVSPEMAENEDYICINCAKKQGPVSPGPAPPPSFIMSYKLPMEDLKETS

In the case of CUL4A (from UniProt Q13619 1-759), the binding [1] is reported as “binds”.
With “Replication origin binding protein (RepID) (from UniProt Q8WWQ0 1-1821)” the binding [2] was “binds”.

Reference: publication PMC10350187
